Experimental findings from US20250170247A1, “CONJUGATES, AND USES THEREOF” (CITY UNIVERSITY OF HONG KONG, priority 2023, published 2025) are described below.

This data set addresses T1, DHX36 (endogenous, HeLa) (Homo sapiens) (UniProt Q9H2U1).
T1 sequence (looked up, limits assumed): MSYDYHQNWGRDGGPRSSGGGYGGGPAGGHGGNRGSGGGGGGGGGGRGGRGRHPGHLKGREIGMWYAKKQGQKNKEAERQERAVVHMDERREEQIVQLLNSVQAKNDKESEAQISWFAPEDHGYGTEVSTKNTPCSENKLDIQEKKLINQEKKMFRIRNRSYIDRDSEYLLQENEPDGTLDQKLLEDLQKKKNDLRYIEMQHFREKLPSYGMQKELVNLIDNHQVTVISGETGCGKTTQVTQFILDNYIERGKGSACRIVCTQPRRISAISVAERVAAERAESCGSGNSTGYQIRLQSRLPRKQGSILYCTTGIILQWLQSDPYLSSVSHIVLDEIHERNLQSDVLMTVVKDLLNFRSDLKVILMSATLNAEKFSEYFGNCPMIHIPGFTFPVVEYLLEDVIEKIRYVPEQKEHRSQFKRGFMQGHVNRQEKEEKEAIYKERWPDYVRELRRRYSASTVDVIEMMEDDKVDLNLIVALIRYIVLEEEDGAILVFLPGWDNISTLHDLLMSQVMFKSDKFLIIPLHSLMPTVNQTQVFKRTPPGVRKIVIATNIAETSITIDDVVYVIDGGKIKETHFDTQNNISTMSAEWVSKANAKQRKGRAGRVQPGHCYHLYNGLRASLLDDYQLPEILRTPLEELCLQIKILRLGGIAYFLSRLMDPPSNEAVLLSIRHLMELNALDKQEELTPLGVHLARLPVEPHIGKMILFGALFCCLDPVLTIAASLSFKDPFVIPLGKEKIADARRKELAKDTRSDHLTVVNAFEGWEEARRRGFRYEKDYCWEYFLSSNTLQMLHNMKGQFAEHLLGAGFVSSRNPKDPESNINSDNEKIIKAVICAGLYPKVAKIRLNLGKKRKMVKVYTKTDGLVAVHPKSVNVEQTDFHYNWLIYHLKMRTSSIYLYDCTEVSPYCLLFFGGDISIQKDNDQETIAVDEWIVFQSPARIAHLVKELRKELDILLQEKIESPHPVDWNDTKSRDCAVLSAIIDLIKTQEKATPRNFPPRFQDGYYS
Nature of the data set: binding assay. As to conditions: 5'-hexynyl clicked to azide-modified AHPC; confocal foci colocalized with endogenous DHX36 in HeLa, data not shown; protein in cells; label: 3'-FAM.

Where cells or extracts were used, other partners may take part. Tags and fusion partners may be left off the protein sequences shown.

Turning to “GGGUUGCGGAGGGUGGGCCU [FAM_rG4_A (hTERC rG4 WT-AHPC conjugate)]”, the binding result is “binds”.
